No constants are given. Whether binding was seen depends on the method and setting. Binding seen in cells or lysates may run through a third protein. Some entries that bind do so weakly or less than the wild type. Sequences can lack the tags named with a protein.
Key:
[1] = target: G protein-coupled receptor GPR180, endogenous, in crude tissue homogenates of two day old Cthrc1 null mouse pups (mouse) (UniProt Q8BPS4); test: co-immunoprecipitation, LC-MS
[2] = target: G protein-coupled receptor GPR180, endogenous, in crude tissue homogenates of two day old Cthrc1 null mouse pups (mouse) (UniProt Q8BPS4); test: co-immunoprecipitation from Cthrc1 null pup tissue homogenate, LC-MS
[3] = target: G protein-coupled receptor GPR180, endogenous, in crude tissue homogenates of two day old Cthrc1 null mouse pups (mouse) (UniProt Q8BPS4); test: co-immunoprecipitation from Cthrc1 null pup tissue homogenate, qTOF / linear ion trap MS

Chains of the proteins cited; added tags and fusions are not shown. Lines headed by an entry give the natural chain unless they say otherwise; changes in a name come on top.
UniProt Q8BPS4: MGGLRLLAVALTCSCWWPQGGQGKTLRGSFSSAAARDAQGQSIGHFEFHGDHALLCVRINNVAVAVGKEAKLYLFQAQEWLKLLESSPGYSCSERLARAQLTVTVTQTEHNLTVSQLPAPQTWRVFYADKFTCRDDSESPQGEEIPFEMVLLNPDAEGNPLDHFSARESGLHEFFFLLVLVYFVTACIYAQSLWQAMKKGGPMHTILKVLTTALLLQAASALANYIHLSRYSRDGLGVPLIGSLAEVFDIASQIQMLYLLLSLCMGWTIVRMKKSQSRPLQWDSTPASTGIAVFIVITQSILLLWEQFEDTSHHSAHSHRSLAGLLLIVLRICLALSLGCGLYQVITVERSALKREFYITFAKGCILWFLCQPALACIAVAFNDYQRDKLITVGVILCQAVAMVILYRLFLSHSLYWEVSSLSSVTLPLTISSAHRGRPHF

Measured: binding

B1: purified 7×His-hCthrc1 (human Cthrc1 with a 7×His tag fused to the N terminus, expressed in CHO-K1 cells) (ligand)
chain: HHHHHHHSEIPKGKQKAQLRQREVVDLYNGMCLQGPAGVPGRDGSPGANVIPGTPGIPGRDGFKGEKGECLRESFEESWTPNYKQCSWSSLNYGIDLGKIAECTFTKMRSNSALRVLFSGSLRLKCRNACCQRWYFTFNGAECSGPLPIEAIIYLDQGSPEMNSTINIHRTSSVEGLCEGIGAGLVDVAIWVGTCSDYPKGDASTGWNSVSRIIIEELPK
binds: [1] | [2] | [3]

From patent US20160000866A1
